In the supplement of paper PMC4962491:
± gives the standard deviation of the averaged measurements. Only a part is listed here, and it is no random draw. Repeats in this data set agree poorly, so a single value says little.

Test system: FaDu
Experiment: mitochondrial oxygen consumption rate normalised to cell number, Z score over the library; higher = higher oxygen consumption (negative = OCR reduction)
Details: treatment time 24 h, assay medium: 5 mM galactose, 5 mM pyruvate, 4 mM glutamine
Description: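 Primary screen: FaDu cells were incubated 24 h with Pharmakon 1600 / TDI oncology set compounds at 2 or 10 uM. Mitochondrial-specific OCR (basal minus 2 uM antimycin A) was measured on a Seahorse XF96 in assay medium with 5 mM galactose, 5 mM pyruvate and 4 mM glutamine, then corrected for Hoechst cell number and expressed as a Z score […]. Compounds that cut cell number by >66% were excluded. Two repeats.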

SMILES	mitochondrial oxygen consumption rate normalised (2 µM)	mitochondrial oxygen consumption rate normalised (10 µM)
Cc1c(-c2cnccn2)ssc1=S	-0.732 ± 0.15	-0.416 ± 0.25
C(=C\c1ccccc1)/CN1CCN(C(c2ccccc2)c2ccccc2)CC1	0.217 ± 0.79	
N[C@@H](Cc1cc(I)c(Oc2ccc(O)c(I)c2)c(I)c1)C(=O)O	0.693 ± 0.15	
N[C@@H](Cc1cc(I)c(Oc2ccc(O)c(I)c2)c(I)c1)C(=O)O [LIOTHYRONINE (L- isomer) SODIUM]	0.587 ± 0.92	
Nc1c2ccccc2nc2ccccc12	0.247 ± 0.15	-1.9 ± 0.35
CN1CCC(=C2c3ccccc3Sc3ccccc32)CC1	-0.432 ± 0.25	
C[C@H](CCC(=O)O)[C@H]1CC[C@H]2[C@@H]3[C@@H](O)C[C@@H]4C[C@H](O)CC[C@]4(C)[C@H]3CC[C@]12C	-0.501 ± 1.1	
CC1CC(OC(=O)c2ccccc2O)CC(C)(C)C1 (stereo unspecified)	-0.723 ± 0.39	
NC[C@@H]1O[C@@H](O[C@H]2[C@H](O)[C@@H](O[C@H]3O[C@H](CO)[C@@H](O)[C@H](N)[C@H]3O)[C@H](N)C[C@@H]2N)[C@@H](O)[C@H](O)[C@H]1O	-0.735 ± 0.2	
CC[C@@H]1C(=O)OC[C@@H]1Cc1cncn1C	2.5 ± 1.8	
CN1C(=O)CC[C@H]1c1cccnc1	-0.202 ± 0.068	
NS(=O)(=O)c1cc2c(cc1C(F)(F)F)NCNS2(=O)=O	-0.63 ± 0.11	
C=C(C)[C@H]1CC=C(C)CC1	0.777 ± 1.4	
NC(=O)CCCCC1CCSS1 (stereo unspecified)	-0.862 ± 0.23	1.43 ± 0.3
CCC1(C)OC(=O)N(C)C1=O (stereo unspecified)	0.316 ± 0.96	0.0479 ± 0.05
N[C@@H](Cc1c[nH]c2ccccc12)C(=O)O	0.839 ± 0.29	
O=C(OOC(=O)c1ccccc1)c1ccccc1	0.0605 ± 0.52	
CC(O)Cn1cnc2c1c(=O)n(C)c(=O)n2C (stereo unspecified)	-0.154 ± 0.48	
CS(=O)(=O)OCCCCOS(C)(=O)=O [Busulfan]	0.456 ± 0.81	0.391 ± 1.2
CS(=O)(=O)OCCCCOS(C)(=O)=O	-0.447 ± 0.12	0.716 ± 1.1
Cc1c(NC(=O)c2cccnc2)c(=O)n(-c2ccccc2)n1C	0.733 ± 1.2	

Reformatted: results already given

| SMILES | mitochondrial oxygen consumption rate normalised (2 µM) | mitochondrial oxygen consumption rate normalised (10 µM) |
| --- | --- | --- |
| CC[C@@H]1C(=O)OC[C@@H]1Cc1cncn1C | 2.5 ± 1.8 |  |
| CN1C(=O)CC[C@H]1c1cccnc1 | -0.202 ± 0.068 |  |

Going on with the list.

SMILES	mitochondrial oxygen consumption rate normalised (2 µM)	mitochondrial oxygen consumption rate normalised (10 µM)
CNC(=O)c1cc(Oc2ccc(NC(=O)Nc3ccc(Cl)c(C(F)(F)F)c3)cc2)ccn1 [sorafenib]	0.191 ± 1	
COc1cccc2c1C(=O)c1c(O)c3c(c(O)c1C2=O)C[C@@](O)(C(C)=O)C[C@@H]3O[C@H]1C[C@H](N)[C@H](O)[C@H](C)O1	-2.99 ± 1.2	
CC(=O)NS(=O)(=O)c1ccc(N)cc1	-0.833 ± 0.24	
Cc1cn([C@H]2C=C[C@@H](CO)O2)c(=O)[nH]c1=O	1.25 ± 0.035	
C=CC1=C(C(=O)O)N2C(=O)[C@@H](NC(=O)/C(=N\O)c3csc(N)n3)[C@H]2SC1	-0.23 ± 0.69	
CN1C(CCl)Nc2cc(Cl)c(S(N)(=O)=O)cc2S1(=O)=O (stereo unspecified)	0.185 ± 1.2	
OCc1ccccc1O[C@@H]1O[C@H](CO)[C@@H](O)[C@H](O)[C@H]1O	0.73 ± 0.4	0.956 ± 0.64
CC(=O)OCC(=O)[C@@]12OC(C)(C)O[C@@H]1C[C@H]1[C@@H]3C[C@H](F)C4=CC(=O)C=C[C@]4(C)[C@@]3(F)[C@@H](O)C[C@@]12C	-0.228 ± 0.55	0.605 ± 0.52
c1ccc2c(CC3=NCCN3)cccc2c1	0.686 ± 0.095	
CCN(CC)CC(=O)Nc1c(C)cccc1C	0.379 ± 0.18	
CC(=O)CC(c1ccccc1)c1c(O)c2ccccc2oc1=O (stereo unspecified)	0.748 ± 0.072	
NS(=O)(=O)c1cc2c(cc1Cl)NC(C1CC3C=CC1C3)NS2(=O)=O (stereo unspecified)	-0.373 ± 0.54	
O=C1NS(=O)(=O)c2ccccc21	-0.52 ± 1	
O=c1oc2c(O)c(O)cc3c(=O)oc4c(O)c(O)cc1c4c23	-1.64 ± 1.5	
Oc1c(Cl)cc(Cl)c(Cl)c1Cc1c(O)c(Cl)cc(Cl)c1Cl	-3.27 ± 0.72	-6.031 ± 0.028
Cc1c(N(C)C)c(=O)n(-c2ccccc2)n1C	-0.32 ± 0.093	
CCOC(=O)C1=C(COCCN)NC(C)=C(C(=O)OC)C1c1ccccc1Cl (stereo unspecified)	-0.327 ± 0.78	
CCN(CC)CCNC(=O)c1c(C)[nH]c(/C=C2\C(=O)Nc3ccc(F)cc32)c1C [Sunitinib Malate]	0.376 ± 0.31	-0.335 ± 0.17
COc1ccc(/C=C/C(=O)Nc2ccccc2C(=O)O)cc1OC	0.915 ± 0.035	
Cc1cccc(C)c1OCC(C)N (stereo unspecified)	0.192 ± 0.88	
